Key:
Type in all cases: cell-based
PC3 (prostate) = assay: In vitro cytotoxic activity MTT assay, PC3; conditions: Homo sapiens, 96 hours exposure, read-out: IC50, 50% inhibition of cell proliferation
Procedure: (§1) Compounds 1-16 were screened for their in vitro cytotoxic activity utilizing a 3-(4,5-dimethyl-thiazol-2-yl)-2,5-diphenyltetrazolium bromide (MTT) assay against selected cancer human cell lines consisting of PC3 (prostate), HCT116 (colon), A375 (melanoma), H1299 (lung), MIAPaCa-2 (pancreas), HL60 (leukemia), MCF7 (breast), MDA-MB-231 (breast) (T. Mosmann, J. Immunol. Meth., 1983, 65, 55-63). The cells were cultured at 37° C. in RMPI1640 medium supplemented with 10% fetal bovine serum, 50 IU/mL penicillin, and 50 μg/mL streptomycin in a 5% CO2 incubator. All cells were sub-cultured 3 times/week by trypsinisation. Viable cells were seeded and allowed to adhere for 12 h before a test drug was added in 96-well plates at an initial density of 1.0×10^5 cells/mL. Tumour cell lines were separately exposed to various concentrations of the tested compounds followed by incubation at a temperature of 37° C. during 96 h inside a medium of fresh RMPI 1640. Cells were subsequently incubated at 37° C. using MTT at 0.5 mg/mL during 4 h. After removal of supernatant, formazan crystals were dissolved in isopropanol and the optical density was measured at 570 nm. CX-4945 was used as a positive control.

HCT116 (colon) = assay: In vitro cytotoxic activity MTT assay, HCT116; conditions: Homo sapiens, HCT-116, 96 hours exposure, read-out: IC50, 50% inhibition of cell proliferation
Procedure: as §1

A375 (melanoma) = assay: In vitro cytotoxic activity MTT assay, A375; conditions: Homo sapiens, A-375, 96 hours exposure, read-out: IC50, 50% inhibition of cell proliferation
Procedure: as §1

H1299 (lung) = assay: In vitro cytotoxic activity MTT assay, H1299; conditions: Homo sapiens, NCI-H1299, 96 hours exposure, read-out: IC50, 50% inhibition of cell proliferation
Procedure: as §1

MIAPaCa-2 (pancreas) = assay: In vitro cytotoxic activity MTT assay, MIAPaCa-2; conditions: Homo sapiens, MIA PaCa-2, 96 hours exposure, read-out: IC50, 50% inhibition of cell proliferation
Procedure: as §1

HL60 (leukemia) = assay: In vitro cytotoxic activity MTT assay, HL60; conditions: Homo sapiens, HL-60, 96 hours exposure, read-out: IC50, 50% inhibition of cell proliferation
Procedure: as §1

MCF7 (breast) = assay: In vitro cytotoxic activity MTT assay, MCF7; conditions: Homo sapiens, 96 hours exposure, read-out: IC50, 50% inhibition of cell proliferation
Procedure: as §1

MDA-MB-231 (breast) = assay: In vitro cytotoxic activity MTT assay, MDA-MB-231; conditions: Homo sapiens, 96 hours exposure, read-out: IC50, 50% inhibition of cell proliferation
Procedure: as §1

O=C(O)c1ccc2c(c1)nc(Nc1cccc(Cl)c1)c1ccncc12 [CX-4945, reference compound]
IC50 (PC3 (prostate)): 2000 nM
IC50 (HCT116 (colon)): 2300 nM
IC50 (A375 (melanoma)): 4100 nM
IC50 (H1299 (lung)): 2300 nM
IC50 (MIAPaCa-2 (pancreas)): 1000 nM
IC50 (HL60 (leukemia)): 3700 nM
IC50 (MCF7 (breast)): 9100 nM
IC50 (MDA-MB-231 (breast)): 6200 nM

Reference: patent US11891397B1, “Pyrido[4′,3′:4,5]pyrrolo[3,2-c][1,7]naphthyridin-10-one compounds as CK2 inhibitors” (KING FAISAL UNIVERSITY, priority 2023, dated 2024)
